In article PMC8629785 one finds binding data, which are given here for one substance.

The target of one assay is T1, HA-GLYT1 (UniProt P28572).
T1 sequence: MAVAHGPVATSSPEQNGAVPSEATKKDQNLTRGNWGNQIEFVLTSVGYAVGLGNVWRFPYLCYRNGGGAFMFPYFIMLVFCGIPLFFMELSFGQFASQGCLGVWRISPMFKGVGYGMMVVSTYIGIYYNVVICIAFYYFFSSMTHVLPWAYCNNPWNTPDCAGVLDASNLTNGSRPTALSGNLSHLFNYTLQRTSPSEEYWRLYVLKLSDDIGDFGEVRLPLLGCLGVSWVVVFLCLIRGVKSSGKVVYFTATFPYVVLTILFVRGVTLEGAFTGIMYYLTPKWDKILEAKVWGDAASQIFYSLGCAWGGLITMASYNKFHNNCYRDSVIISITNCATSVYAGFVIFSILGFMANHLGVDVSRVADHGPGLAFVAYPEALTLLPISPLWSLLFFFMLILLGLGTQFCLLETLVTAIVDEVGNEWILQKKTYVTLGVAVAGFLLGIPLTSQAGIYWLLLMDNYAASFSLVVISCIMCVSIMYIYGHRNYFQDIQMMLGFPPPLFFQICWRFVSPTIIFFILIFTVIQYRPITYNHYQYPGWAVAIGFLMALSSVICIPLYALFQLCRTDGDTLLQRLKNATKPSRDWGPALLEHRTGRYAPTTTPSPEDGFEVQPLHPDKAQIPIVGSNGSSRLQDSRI
The assay can be described thus: co-IP; HEK293 cells transiently co-transfected with tagged proteins, 48 h; solubilised in RIPA buffer (0.1% SDS, 1% Triton X100, 0.5% sodium deoxycholate, 150 mM NaCl), in some panels a modified RIPA without SDS or with rising SDS (diluted to 0.1% before IP); antibody to the tag overnight at 4 °C, protein A or G agarose, western blot. Background: In western blotting, separated proteins are transferred to a membrane and probed.

In a further assay the target is T2, HA-GLYT2 (UniProt P58295).
T2 sequence: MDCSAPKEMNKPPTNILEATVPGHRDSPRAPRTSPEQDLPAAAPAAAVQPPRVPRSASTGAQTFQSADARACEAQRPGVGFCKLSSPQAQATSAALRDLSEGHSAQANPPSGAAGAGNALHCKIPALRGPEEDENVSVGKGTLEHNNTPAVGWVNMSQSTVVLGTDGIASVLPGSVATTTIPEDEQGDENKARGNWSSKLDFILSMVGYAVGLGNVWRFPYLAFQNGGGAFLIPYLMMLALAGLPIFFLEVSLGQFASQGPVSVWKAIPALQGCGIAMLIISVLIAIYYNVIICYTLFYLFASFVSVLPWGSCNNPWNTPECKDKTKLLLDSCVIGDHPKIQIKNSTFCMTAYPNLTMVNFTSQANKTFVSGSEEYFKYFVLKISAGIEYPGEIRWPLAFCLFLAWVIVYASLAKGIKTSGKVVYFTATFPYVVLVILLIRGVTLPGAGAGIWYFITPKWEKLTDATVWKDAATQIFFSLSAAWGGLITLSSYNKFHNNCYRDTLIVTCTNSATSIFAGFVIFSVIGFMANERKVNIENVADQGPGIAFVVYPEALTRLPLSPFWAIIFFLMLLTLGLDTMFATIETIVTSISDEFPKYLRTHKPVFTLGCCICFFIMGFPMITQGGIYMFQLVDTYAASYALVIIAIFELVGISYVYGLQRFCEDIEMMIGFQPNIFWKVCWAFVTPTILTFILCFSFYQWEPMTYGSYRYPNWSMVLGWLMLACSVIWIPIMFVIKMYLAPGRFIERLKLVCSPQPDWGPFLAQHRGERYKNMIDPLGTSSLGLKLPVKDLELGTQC
The description is as above.

No constants are given. Whether binding was seen depends on the method and setting. In cells and extracts the contact can be indirect. For some assays here: Binding can be weak; no strength is given. Where a sequence is shown, tags or fusion partners need not be part of it.

Regarding myc-4F2hc WT (human), the binding result with HA-GLYT1 is given as “no binding”; in the assay with HA-GLYT2, “binds”.
